The campaign covered roughly 220,000 compounds. About 770 (0.35%) were called active. The inconclusive results got no clear call from the source; some entries with a clear call stand among them for comparison. No stated cut-off is given here; in the data, active means binding response below about 49% or above about 150%; inconclusive means no clear call, values can overlap the other calls; inactive means in between.
Biological target: Guanine nucleotide-binding protein G(o) subunit alpha (Homo sapiens) (UniProt P09471)
Assay: RGS7-Galphao binding modulators, primary screen, biochemical, multiplexed bead flow cytometry (AID 1439);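 further: fluorescent Galphao held in activated GDP-AlF4 state binding bead-coupled RGS7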
Settings: at 10 µM, actives lie on both sides

Amino acid sequences for entries named in this document (tags omitted).
UniProt P09471, whole entry, looked up: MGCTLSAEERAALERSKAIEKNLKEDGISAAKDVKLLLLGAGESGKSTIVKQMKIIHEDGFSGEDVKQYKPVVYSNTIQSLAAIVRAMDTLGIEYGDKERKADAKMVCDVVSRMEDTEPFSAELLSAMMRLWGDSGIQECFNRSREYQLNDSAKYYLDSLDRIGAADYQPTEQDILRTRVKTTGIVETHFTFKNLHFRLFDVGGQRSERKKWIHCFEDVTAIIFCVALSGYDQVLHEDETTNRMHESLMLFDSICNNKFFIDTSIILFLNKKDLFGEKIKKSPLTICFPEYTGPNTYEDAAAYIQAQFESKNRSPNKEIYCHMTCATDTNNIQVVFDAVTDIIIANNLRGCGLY

Row | Structure (SMILES) | binding response (% of control)
1 | COc1ccc(NCC(=O)Nc2cc(S(=O)(=O)N3CCOCC3)ccc2N2CCOCC2)c(OC)c1 | inconclusive: 218%
2 | COc1cc(O)c(C(CCN2CCN(c3ccccc3)CC2)c2ccc3c(c2)OCO3)c(OC)c1 (centres undefined) | inconclusive: 116%
3 | Cc1cccc(-c2nc(C)cc(=O)[nH]2)c1 | inconclusive: 108%
4 | Cc1sc2nc[nH]c(=S)c2c1-c1ccccc1 | inconclusive: 100%
5 | CC(Oc1ccc(Cl)cc1)c1ccnc(N)n1 (centres undefined) | inactive: 98%
6 | CCN1CCN(c2nc(Nc3cc(OC)ccc3OC)nc(Nc3cc(OC)ccc3OC)n2)CC1 | inconclusive: 82.3%
7 | Nc1ncnc(Nc2cc(C(F)(F)F)cc(C(F)(F)F)c2)n1 | inconclusive: 114%
8 | CCOc1ccc(NC(=S)N=Nc2c(O)[nH]c3ccccc23)cc1 | inconclusive: 117%
9 | NC(=S)c1ncc(C(F)(F)F)cc1Cl | inconclusive: 108%
10 | Cc1ccc(-c2c[n+](CC(=O)Nc3c(C)cccc3C)c3n2CCC3)cc1 | inconclusive: 173%
11 | COc1ccc(OCC(=O)OCC(=O)N2CC(=O)Nc3ccccc32)cc1 | inconclusive: 77.3%
12 | O=c1oc2ccccc2c(O)c1/C=N/c1ccccn1 | inactive: 104%
13 | CCCc1c(C(=O)Nc2ccc(F)cc2)cnn1-c1ccccc1 | inconclusive: 109%
14 | CCS(=O)(=O)c1ccc(O)c(NC(=O)CC2(CC(=O)O)CCCC2)c1 | inconclusive: 118%
15 | CCCCN=CC1=C(O)CC(c2ccccc2)CC1=O (centres undefined) | inconclusive: 113%
16 | COc1cccc(N(Cc2nnc3n2CCCCC3)C(=O)Nc2ccccc2F)c1 | inconclusive: 109%
17 | CCOc1ccc(NS(=O)(=O)c2ccc(N)cc2)cc1 | inactive: 94.7%
18 | COc1ccc(NC(=O)c2nc[nH]c2C(=O)N2CCN(C(=O)OC(C)(C)C)CC2)cc1 | inconclusive: 93.8%
19 | COC(=O)Nc1nnc(COc2ccccc2)s1 | inconclusive: 46.5%
20 | Cc1cc(C(=O)N/N=C/c2ccc([N+](=O)[O-])s2)n[nH]1 | inconclusive: 94.9%
21 | O=C(NN=C(Cc1ccccc1)Cc1ccccc1)C1CC1 | inactive: 97.7%
22 | CCOC(=O)c1sc(-c2ccc(Cl)cc2Cl)nc1O | inconclusive: 84.3%
23 | Cc1ccc(S(=O)(=O)NC(=O)N(C)C2CCCCC2)cc1 | inconclusive: 107%
24 | CSCCC(NS(=O)(=O)c1ccc(Cl)cc1)C(=O)OCC(=O)c1ccc(F)cc1 (centres undefined) | inactive: 100%

Reprinted at random: 3 compounds from above.
Row | Structure (SMILES) | binding response (% of control)
12 | O=c1oc2ccccc2c(O)c1/C=N/c1ccccn1 | inactive: 104%
8 | CCOc1ccc(NC(=S)N=Nc2c(O)[nH]c3ccccc23)cc1 | inconclusive: 117%
17 | CCOc1ccc(NS(=O)(=O)c2ccc(N)cc2)cc1 | inactive: 94.7%

(further entries)

Row | Structure (SMILES) | binding response (% of control)
25 | Cc1ccc(C)c2[nH]c(=O)c(CN(CC3CCCO3)C(=S)NCc3ccco3)cc12 (centres undefined) | inconclusive: 92.9%
26 | O=C(Cc1cccc2ccccc12)NN1C(=O)CSC1=S | inconclusive: 106%
27 | Cc1cccc(-n2ncc3c(N(C)C4CCCCC4)ncnc32)c1 | inconclusive: 168%
28 | CC(C)=CCN1CCN(Cc2nc(-c3ccccc3)cs2)CC1CCO (centres undefined) | inactive: 98.5%
29 | O=C(O)/C=C\c1cn(-c2ccccc2)nc1-c1cc2ccccc2o1 | inconclusive: 123%
30 | O=C(NCc1ccccc1Cl)C1CC(=O)N(Cc2ccccc2)C1 (centres undefined) | inconclusive: 101%
31 | S=C(NCc1ccc2[nH]c3c(c2c1)CCCC3)Nc1ccccc1 | inactive: 50.3%
32 | Cc1ccc(-c2nnc(N3CCCCC3)c3ccccc23)cc1S(=O)(=O)NCC1CCCO1 (centres undefined) | inactive: 99.9%
33 | COc1ccc(C(=O)NC(=O)NC2(C(Cl)(Cl)Cl)OCCO2)cc1 | inconclusive: 104%
34 | COC(=O)c1sccc1Oc1ccc(Cl)cc1N1C(=O)CCC1=O | inconclusive: 91.8%
35 | O=C(O)COc1ccccc1/C=N/NC(=O)CN1CCN(Cc2ccccc2Cl)CC1 | inconclusive: 92.9%
36 | CC1CCC2(CC1)NC(=O)N(Cc1cc(=O)n3ccsc3n1)C2=O (centres undefined) | inconclusive: -18.5%
37 | COc1cc(/C=N/NC(=O)c2ccccc2O)ccc1OC(=O)CC1SC(=O)NC1=O (centres undefined) | inconclusive: 202%
38 | O=C(NNc1nc2ccccc2o1)c1ccccc1 | inconclusive: 102%
39 | CNC(=O)NNC(=O)c1csc(Cc2c(Cl)sc3ccc(Cl)cc23)n1 | inconclusive: 98%
40 | O=C(Nc1nccs1)c1ccc(N2C(=O)[C@@H]3[C@H](C2=O)[C@H]2C=C[C@@H]3C2)cc1 | inconclusive: 129%
41 | N#CC(C#N)=C(N)Nc1cccc(Cl)c1 | inconclusive: 100%
42 | COC(=O)C1=C(C)NC2=C(C(=O)CC(C)(C)C2)C1c1ccsc1 (centres undefined) | active: 25.2%
43 | COc1ccccc1NC(=S)NC1CCCCCCCCCCC1 | inconclusive: 14.7%
44 | CN(C(=O)N1CCN(S(=O)(=O)c2ccccc2)CC1)c1ccccc1 | inactive: 95.3%
45 | CC(C)(C)c1ccc(N2C(=N)SCC2=O)cc1 | inconclusive: 105%
46 | Cc1ccc2nsnc2c1NC(=O)c1cncc(Br)c1 | inactive: 101%
47 | S=C(NCCNCc1ccccc1)NC1CCCCC1 | inconclusive: 103%
48 | CC(=O)c1ccc(N/N=C2/CCCNC2=O)cc1 | inconclusive: 102%

Row | Structure (SMILES) | binding response (% of control)
49 | Cc1cc(C)nc(SCc2cn3c(C)cc(C)nc3n2)n1 | inconclusive: 144%
50 | Cn1ncc2c(Nc3ccc(O)cc3)nc(Cl)nc21 | inconclusive: 46.4%
51 | CC1=CC=CN2CC(O)CN=C12 (centres undefined) | inactive: 104%
52 | O=C(NC(=S)Nc1ccccn1)c1ccccc1 | inconclusive: 75.5%
53 | O=c1cc(-c2ccccc2F)oc2ccccc12 | inactive: 94.4%
54 | O=C(Cc1ccc(Cl)cc1)c1c[nH]c(C(=O)NCCCN2CCOCC2)c1 | inconclusive: 98.5%
55 | COc1ccc(CCN(C)Cc2nc(-c3cnccn3)no2)cc1OC | inconclusive: 98.8%
56 | O=C(NCc1cccnc1)c1ccccc1NS(=O)(=O)c1ccc(F)cc1F | inconclusive: 521%
57 | Cn1nccc1NC(=O)Nc1ccc(OC(F)(F)F)cc1 | inconclusive: 99.9%
58 | Cc1c(NC(=O)CN2C(=O)NC(CCc3ccccc3)C2=O)c(=O)n(-c2ccccc2)n1C (centres undefined) | inconclusive: 108%
59 | c1ccc(CNCCC(Cc2ccccc2)c2ccco2)cc1 (centres undefined) | inconclusive: 89.8%
60 | COc1nccnc1NS(=O)(=O)c1ccc(NC(=S)NC(=O)c2cccnc2)cc1 | inconclusive: 95.2%
61 | O=C1NC(=Nc2ccccc2)CS1 | inconclusive: 113%
62 | Cc1nc2ccc(NC(=O)COc3cccc(F)c3)cc2s1 | inconclusive: 75.9%
63 | Cn1c(=O)c2c(nc(Sc3ccccc3N)n2C)n(C)c1=O | inconclusive: 224%
64 | Cc1ccc(C(=O)OCC(=O)Nc2ccc(S(N)(=O)=O)cc2)c(O)c1 | inconclusive: 117%
65 | NC(=O)c1ccccc1N1CCCCC1 | inconclusive: -134%
66 | O=C(c1cc2cc(C(F)(F)F)ccc2s1)N1CCOCC1 | inconclusive: 92.3%
67 | CCCOc1ccc(/C=N/Nc2ccc(C(=O)O)cc2)c(OCCC)c1 | inconclusive: 77.8%
68 | O=C(/C=C/c1cccc([N+](=O)[O-])c1)n1cnc2ccccc21 | inactive: 100%
69 | COCCNC(=O)c1c(N)n(/N=C/c2ccc(F)cc2)c2nc3ccccc3nc12 | inconclusive: 108%
70 | COc1ccccc1C(=O)NCC(=O)N/N=C/c1cn[nH]c1-c1ccccc1 | inconclusive: 89.3%
71 | Cc1nc(CNC(=O)c2cc(COc3c(F)cccc3F)on2)cs1 | inconclusive: 9.18%
72 | CCCCn1c(CN2CCN(C)CC2)nc2ccccc21 | inactive: 99.2%

Row | Structure (SMILES) | binding response (% of control)
73 | O=C(CSc1ncc(C(=O)O)n1-c1ccc(F)cc1)NCc1ccc2c(c1)OCO2 | inconclusive: 101%
74 | COc1ccc2c(c1)c(CC(=O)OCC(N)=O)c(C)n2C(=O)c1ccc(Cl)cc1 | inconclusive: 101%
75 | Cc1cc(C)n(-c2nc(NCCN(C)C)c3c4c(sc3n2)CCCC4)n1 | inconclusive: 95.6%
76 | O=C(Nc1ccc(S(=O)(=O)Nc2nccs2)cc1)C1=NN(c2ccccc2)C(=O)CC1 | inconclusive: 98.9%
77 | CSc1ccccc1NC(=O)CN1c2ccccc2CC1C (centres undefined) | inconclusive: 113%
78 | O=C1N=C(C=c2ccc(=Cc3[nH]c(=O)[nH]c3O)cc2)C(=O)N1 | inconclusive: 3.37%
79 | O=c1nc2n(c3ccc([N+](=O)[O-])cc13)CCCCC2 | inconclusive: 89.7%
80 | O=C(NCc1ccccn1)C(=O)Nc1nc(-c2ccccc2)cs1 | inconclusive: 98%
81 | CCOC(=O)c1sc(SC)c2c1CCCC2=O | inconclusive: 145%
82 | Cc1cc(C(=O)Nc2ccccc2C#N)n(-c2ccccc2)n1 | inactive: 100%
83 | CCN(CC)CCn1c(N)c(S(=O)(=O)c2ccccc2)c2nc3ccccc3nc21 | inconclusive: 54.5%
84 | C=C(C)CNC(=S)NNC(=O)c1ccc(Br)cc1 | inactive: 104%
85 | COc1cccc(/C=C2/NC(=O)NC2=O)c1OCC(=O)Nc1ccccc1 | inconclusive: 81.2%
86 | COc1ccc2nc(SCCN(C)C)[nH]c2c1 | inactive: 104%
87 | CC(=O)Nc1cccc([N+](=O)[O-])c1 | inconclusive: 247%
88 | c1ccc(Cc2cc[n+](Cc3ccccn3)cc2)cc1 | inconclusive: 159%
89 | Cc1cc(-c2ccc(Cl)cc2Cl)c(C#N)c(=O)[nH]1 | inconclusive: 50.9%
90 | Cc1cccc(NC(=O)c2ccc(S(=O)(=O)N3CCCCC3)cc2)n1 | inconclusive: 98.1%
91 | CCOC(=O)N1CCN(Cc2nc3ccc([N+](=O)[O-])cc3c(=O)n2-c2cccc(OC)c2)CC1 | inconclusive: 88.5%
92 | Nc1ccc(C(=O)Nc2ccc(NC(=O)c3ccco3)c(O)c2)cc1 | inconclusive: 4.27%
93 | Cc1ccnc(NC(c2ccccn2)c2c(C)[nH]c3ccccc23)c1 (centres undefined) | inactive: 106%
94 | Cc1onc(-c2ccccc2)c1NC(=O)N(CCC#N)Cc1cccs1 | inconclusive: 104%

From PubChem BioAssay AID1439 (NMMLSC, 2008)
